Assay [1] deals with Neural cell adhesion molecule (NCAM, CD56) (human) (UniProt P13591). Nature of the assay: FACS on ES2 cells.
Assay [2] shares this target. Nature of the assay: FACS on ES-2 cells.
Assay [3] has the same target. Nature of the assay: confocal microscopy of Saos-2 cells with fluorescently labeled peptide.

Protein sequences, listed by entry. Tags and fused reporters are not part of them. Residues count along the entry.
UniProt P13591, residues 20-858: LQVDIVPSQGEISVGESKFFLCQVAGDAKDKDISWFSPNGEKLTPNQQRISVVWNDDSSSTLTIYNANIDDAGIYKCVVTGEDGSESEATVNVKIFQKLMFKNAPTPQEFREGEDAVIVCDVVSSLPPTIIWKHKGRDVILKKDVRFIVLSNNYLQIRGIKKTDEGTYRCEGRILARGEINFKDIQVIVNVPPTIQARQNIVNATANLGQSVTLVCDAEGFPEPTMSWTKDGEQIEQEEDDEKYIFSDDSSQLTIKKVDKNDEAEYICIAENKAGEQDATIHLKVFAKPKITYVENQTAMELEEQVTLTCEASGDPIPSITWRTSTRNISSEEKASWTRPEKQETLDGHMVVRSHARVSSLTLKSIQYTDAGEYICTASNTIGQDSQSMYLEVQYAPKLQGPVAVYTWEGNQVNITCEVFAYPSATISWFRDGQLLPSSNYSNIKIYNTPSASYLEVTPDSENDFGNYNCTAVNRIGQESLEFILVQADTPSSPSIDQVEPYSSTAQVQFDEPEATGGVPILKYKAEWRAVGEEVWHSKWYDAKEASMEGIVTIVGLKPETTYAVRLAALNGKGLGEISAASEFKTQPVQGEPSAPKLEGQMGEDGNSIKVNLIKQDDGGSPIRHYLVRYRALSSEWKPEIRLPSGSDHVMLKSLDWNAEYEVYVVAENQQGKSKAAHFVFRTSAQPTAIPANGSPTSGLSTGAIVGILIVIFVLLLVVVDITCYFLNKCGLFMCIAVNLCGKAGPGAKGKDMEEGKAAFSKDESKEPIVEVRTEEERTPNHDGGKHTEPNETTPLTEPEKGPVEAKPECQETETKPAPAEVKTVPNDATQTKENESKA

Results are given in words; binding and its absence hold for the method and conditions named. Some entries that bind do so weakly or less than the wild type.

With GASKKPKRNIKA (N-terminal 5(6)-carboxyfluorescein (CF) label) [NCAM targeting peptide C3 (SEQ ID NO:3), CF-labeled], the binding result in assay [1] and in assay [2] was “binds” throughout.

B1: NCAM-targeting peptide (NTP), fluorescein-labeled (peptide)
peptide: GDDSDEEN
modifications: N-terminal 5(6)-carboxyfluorescein (CF) label; called FITC-labeled in paragraph 576
As for B1, the binding entry in assay [3] is reported as “binds”.

For the origin of these results see patent publication US20150017115A1 (RAMOT AT TEL AVIV UNIVERSITY, published 2015).
